Results on three molecules are retold here after PMC11647504, “The GPCR adaptor protein Norbin controls the trafficking of C5aR1 and CXCR4 in mouse neutrophils” (The Journal of Biological Chemistry, 2024).

Results are given in words; binding and its absence hold for the method and conditions named. For some of these results: Binding seen in cells or lysates may run through a third protein. Some entries that bind do so weakly or less than the wild type. For some of these results: Sequences can lack the tags named with a protein.

Test [1] deals with T1, Endogenous Norbin of mouse neutrophils (mouse (endogenous in primary neutrophils)) (UniProt Q9Z0E0).
T1 sequence: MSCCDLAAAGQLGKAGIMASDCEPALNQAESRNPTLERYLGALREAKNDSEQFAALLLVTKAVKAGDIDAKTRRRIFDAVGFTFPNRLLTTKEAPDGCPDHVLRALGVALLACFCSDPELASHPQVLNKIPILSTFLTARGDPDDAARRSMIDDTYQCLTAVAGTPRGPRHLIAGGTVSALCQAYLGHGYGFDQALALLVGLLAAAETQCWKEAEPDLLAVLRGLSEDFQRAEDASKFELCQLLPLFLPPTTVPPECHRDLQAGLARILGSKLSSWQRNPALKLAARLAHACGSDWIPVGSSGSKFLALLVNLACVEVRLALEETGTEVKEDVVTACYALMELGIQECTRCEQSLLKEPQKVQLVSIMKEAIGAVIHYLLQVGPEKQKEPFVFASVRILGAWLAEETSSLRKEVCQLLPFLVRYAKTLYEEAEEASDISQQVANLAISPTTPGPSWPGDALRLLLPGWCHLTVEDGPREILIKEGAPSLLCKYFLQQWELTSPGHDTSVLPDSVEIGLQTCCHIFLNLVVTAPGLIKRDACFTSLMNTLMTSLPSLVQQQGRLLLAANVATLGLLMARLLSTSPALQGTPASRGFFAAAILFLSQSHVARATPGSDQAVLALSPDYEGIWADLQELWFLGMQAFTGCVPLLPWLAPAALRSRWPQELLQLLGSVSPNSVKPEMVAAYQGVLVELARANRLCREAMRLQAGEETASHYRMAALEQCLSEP
The experiment in a line: co-IP; Purified Ncdn^fl/fl mouse neutrophils lysed by sonication, 0.1% NP40; endogenous Norbin (pool of Norbin antibodies) or endogenous C5aR1 (C5aR1 antibody) immunoprecipitated from the supernatant with protein A magnetic beads, on ice; western blot for C5aR1 and Norbin; unstimulated cells.

Test [2] deals with T2, Endogenous C5aR1 of mouse neutrophils (mouse (endogenous in primary neutrophils)) (UniProt P30993).
T2 sequence (chain, glycosylated (as the paper says of C5aR1)): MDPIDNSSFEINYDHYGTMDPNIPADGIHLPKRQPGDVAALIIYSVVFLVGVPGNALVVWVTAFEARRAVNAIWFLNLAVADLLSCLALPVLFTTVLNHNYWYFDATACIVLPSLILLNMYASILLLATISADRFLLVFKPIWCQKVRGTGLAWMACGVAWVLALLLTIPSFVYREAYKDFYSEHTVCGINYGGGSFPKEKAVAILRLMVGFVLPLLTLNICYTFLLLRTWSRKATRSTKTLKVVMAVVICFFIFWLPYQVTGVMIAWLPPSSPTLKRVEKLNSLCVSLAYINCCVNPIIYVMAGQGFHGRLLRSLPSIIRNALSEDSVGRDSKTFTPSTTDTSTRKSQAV
The test is described as above.

The target of test [3] is T3, GST-tagged C-terminal tail of CXCR2.
T3 sequence: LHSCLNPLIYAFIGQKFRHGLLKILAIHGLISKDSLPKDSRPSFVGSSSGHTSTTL
The experiment in a line: pull-down; GST-tagged GPCR C-terminal tails (or GST) from bacterial lysates bound to glutathione Sepharose, washed twice in PBS, 2% Triton X-100, 5 mM DTT, incubated with 50 μg purified recombinant His-Norbin for 3 h at 4 °C, washed 3 x in PBS, 1% Triton X-100; western blot with His antibody; both purified.

Test [4] addresses T4, GST-tagged C-terminal tail of CXCR1.
T4 sequence: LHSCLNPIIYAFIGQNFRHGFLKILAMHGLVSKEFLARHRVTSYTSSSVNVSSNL
The test is described as above.

B1: Endogenous C5aR1 of mouse neutrophils (receptor, UniProt P30993 1-351)
chain: MDPIDNSSFEINYDHYGTMDPNIPADGIHLPKRQPGDVAALIIYSVVFLVGVPGNALVVWVTAFEARRAVNAIWFLNLAVADLLSCLALPVLFTTVLNHNYWYFDATACIVLPSLILLNMYASILLLATISADRFLLVFKPIWCQKVRGTGLAWMACGVAWVLALLLTIPSFVYREAYKDFYSEHTVCGINYGGGSFPKEKAVAILRLMVGFVLPLLTLNICYTFLLLRTWSRKATRSTKTLKVVMAVVICFFIFWLPYQVTGVMIAWLPPSSPTLKRVEKLNSLCVSLAYINCCVNPIIYVMAGQGFHGRLLRSLPSIIRNALSEDSVGRDSKTFTPSTTDTSTRKSQAV
modifications: glycosylated (as the paper says of C5aR1)
Turning to B1, in test [1], the binding result was “binds”.

B2: Endogenous Norbin of mouse neutrophils (protein, UniProt Q9Z0E0 1-729)
chain: MSCCDLAAAGQLGKAGIMASDCEPALNQAESRNPTLERYLGALREAKNDSEQFAALLLVTKAVKAGDIDAKTRRRIFDAVGFTFPNRLLTTKEAPDGCPDHVLRALGVALLACFCSDPELASHPQVLNKIPILSTFLTARGDPDDAARRSMIDDTYQCLTAVAGTPRGPRHLIAGGTVSALCQAYLGHGYGFDQALALLVGLLAAAETQCWKEAEPDLLAVLRGLSEDFQRAEDASKFELCQLLPLFLPPTTVPPECHRDLQAGLARILGSKLSSWQRNPALKLAARLAHACGSDWIPVGSSGSKFLALLVNLACVEVRLALEETGTEVKEDVVTACYALMELGIQECTRCEQSLLKEPQKVQLVSIMKEAIGAVIHYLLQVGPEKQKEPFVFASVRILGAWLAEETSSLRKEVCQLLPFLVRYAKTLYEEAEEASDISQQVANLAISPTTPGPSWPGDALRLLLPGWCHLTVEDGPREILIKEGAPSLLCKYFLQQWELTSPGHDTSVLPDSVEIGLQTCCHIFLNLVVTAPGLIKRDACFTSLMNTLMTSLPSLVQQQGRLLLAANVATLGLLMARLLSTSPALQGTPASRGFFAAAILFLSQSHVARATPGSDQAVLALSPDYEGIWADLQELWFLGMQAFTGCVPLLPWLAPAALRSRWPQELLQLLGSVSPNSVKPEMVAAYQGVLVELARANRLCREAMRLQAGEETASHYRMAALEQCLSEP
Take B2: in test [2], the binding result is given as “binds”.

B3: Recombinant His-Norbin (His-tagged rat Norbin protein) (protein, UniProt O35095 1-729)
chain: MSCCDLAAAGQLGKAGIMASDCEPALNQAESRNPTLERYLGALREAKNDSEQFAALLLVTKAVKAGDIDAKTRRRIFDAVGFTFPNRLLTTKEAPDGCPDHVLRALGVALLACFCSDPELASHPQVLNKIPILCTFLTARGDPDDAARRSMIDDTYQCLTAVAGTPRGPRHLIAGGTVSALCQAYLGHGYGFDQALALLVGLLAAAETQCWKEAEPDLLAVLRGLSEDFQRAEDASKFELCQLLPLFLPPTTVPPECHRDLQAGLARILGSKLSSWQRNPALKLAARLAHACGSDWIPVGSSGSKFLALLVNLACVEVRLALEETGTEVKEDVVTACYALMELGIQECTRCEQSLLKEPQKVQLVSIMKEAIGAVIHYLLRVGPEKQKEPFVFASVRILGAWLAEETSSLRKEVCQLLPFLVRYAKTLYEEAEEASDISQQVANLAISPTTPGPAWPGDALRLLLPGWCHLTVEDGPREILIKEGAPSLLCKYFLQQWELTSPGHDTSVLPDSVEIGLQTCCHIFLNLVVTAPGLIKRDACFTSLMNTLMTSLPSLVQQQGRLLLAANVATLGLLMARLLSTSPALQGTPASRGFFAAAILFLSQSHVARATPGSDQAVLALSPDYEGIWADLQELWFLGMQAFTGCVPLLPWLAPAALRSRWPQELLQLLGSVSPNSVKPEMVAAYQGVLVELARANRLCREAMRLQAGEETASHYRMAALEQCLSEP
On to B3, for which the binding entry in test [3] and in test [4] was “no binding (tested: 50 μg His-Norbin)” each time.
